PubChem BioAssay AID1508597, Cure First, 2020
Purpose: 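Survival screen with siRNA in ovarian cancer cells derived from patients, with or without rucaparib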 (primary screen). Cell system: human ovarian carcinoma lines grown from tumours: OCI-P5x (papillary serous) and OCI-C5x (clear cell). Reagents: siRNA pool against human genes, 1.25 pmol siRNA per well. Time to read-out: 72 h or 96 h, depending on the cell culture. Treatment: rucaparib 20 µM (about IC30) or vehicle, present until read-out. Measured: 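ATP luminescence measured at 72 or 96 h according to the culture, then normalised and expressed as percent viability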. Reading the numbers: viability, normalised: higher = more viable cells remaining. Hit rule: 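Active when normalised viability falls below 80 percent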. Meaning of the calls: active = viability under 80%; inactive = viability 80% or more.
The whole screen tested about 2,100 reagents; shown is an unselected part. 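Calls flag viability under 80% in either arm, not effects specific to rucaparib; the reference for percent is not stated.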 Unmarked entries are inactive. The record does not give: the 100% reference.

MARK4 (microtubule affinity regulating kinase 4), rucaparib or vehicle Rucaparib, cell line OCI-C5x (clear cell), technical replicate 1 gave viability, normalised (%) = 69.8 (active). MARK4 (microtubule affinity regulating kinase 4), rucaparib or vehicle Rucaparib, cell line OCI-C5x (clear cell), technical replicate 2 gave viability, normalised (%) = 57.7 (active). With MARK4 (microtubule affinity regulating kinase 4), rucaparib or vehicle Rucaparib, cell line OCI-C5x (clear cell), technical replicate 3 the deposit lists viability, normalised (%) = 74.6 (active). With MARK4 (microtubule affinity regulating kinase 4), rucaparib or vehicle Rucaparib, cell line OCI-P5x (serous), technical replicate 1, the entry reads viability, normalised (%) = 79.3 (active). MARK4 (microtubule affinity regulating kinase 4), rucaparib or vehicle Rucaparib, cell line OCI-P5x (serous), technical replicate 2 scored viability, normalised (%) = 82.1. MARK4 (microtubule affinity regulating kinase 4), rucaparib or vehicle Rucaparib, cell line OCI-P5x (serous), technical replicate 3 scored viability, normalised (%) = 86.3.

With MARK4 (microtubule affinity regulating kinase 4), rucaparib or vehicle Vehicle, cell line OCI-C5x (clear cell), technical replicate 1 the deposit lists viability, normalised (%) = 51.1 (active). MARK4 (microtubule affinity regulating kinase 4), rucaparib or vehicle Vehicle, cell line OCI-C5x (clear cell), technical replicate 2 showed viability, normalised (%) = 56.1 (active). For MARK4 (microtubule affinity regulating kinase 4), rucaparib or vehicle Vehicle, cell line OCI-C5x (clear cell), technical replicate 3 the deposit lists viability, normalised (%) = 46.4 (active). MARK4 (microtubule affinity regulating kinase 4), rucaparib or vehicle Vehicle, cell line OCI-P5x (serous), technical replicate 1 scored viability, normalised (%) = 65.1 (active). MARK4 (microtubule affinity regulating kinase 4), rucaparib or vehicle Vehicle, cell line OCI-P5x (serous), technical replicate 2 showed viability, normalised (%) = 73.3 (active). MARK4 (microtubule affinity regulating kinase 4), rucaparib or vehicle Vehicle, cell line OCI-P5x (serous), technical replicate 3 scored viability, normalised (%) = 68.7 (active).

For LRRK1 (leucine rich repeat kinase 1), rucaparib or vehicle Rucaparib, cell line OCI-C5x (clear cell), technical replicate 1, the entry reads viability, normalised (%) = 55.7 (active). LRRK1 (leucine rich repeat kinase 1), rucaparib or vehicle Rucaparib, cell line OCI-C5x (clear cell), technical replicate 2 scored viability, normalised (%) = 45.6 (active). For LRRK1 (leucine rich repeat kinase 1), rucaparib or vehicle Rucaparib, cell line OCI-C5x (clear cell), technical replicate 3 the deposit lists viability, normalised (%) = 41.2 (active). For LRRK1 (leucine rich repeat kinase 1), rucaparib or vehicle Rucaparib, cell line OCI-P5x (serous), technical replicate 1, the values are viability, normalised (%) = 84.8. For LRRK1 (leucine rich repeat kinase 1), rucaparib or vehicle Rucaparib, cell line OCI-P5x (serous), technical replicate 2, the entry reads viability, normalised (%) = 79.4 (active). LRRK1 (leucine rich repeat kinase 1), rucaparib or vehicle Rucaparib, cell line OCI-P5x (serous), technical replicate 3 scored viability, normalised (%) = 74.5 (active).

LRRK1 (leucine rich repeat kinase 1), rucaparib or vehicle Vehicle, cell line OCI-C5x (clear cell), technical replicate 1 scored viability, normalised (%) = 37.1 (active). LRRK1 (leucine rich repeat kinase 1), rucaparib or vehicle Vehicle, cell line OCI-C5x (clear cell), technical replicate 2 scored viability, normalised (%) = 41.9 (active). For LRRK1 (leucine rich repeat kinase 1), rucaparib or vehicle Vehicle, cell line OCI-C5x (clear cell), technical replicate 3, the values are viability, normalised (%) = 42.1 (active). LRRK1 (leucine rich repeat kinase 1), rucaparib or vehicle Vehicle, cell line OCI-P5x (serous), technical replicate 1 gave viability, normalised (%) = 82.7. LRRK1 (leucine rich repeat kinase 1), rucaparib or vehicle Vehicle, cell line OCI-P5x (serous), technical replicate 2 gave viability, normalised (%) = 78.9 (active). With LRRK1 (leucine rich repeat kinase 1), rucaparib or vehicle Vehicle, cell line OCI-P5x (serous), technical replicate 3, the values are viability, normalised (%) = 79.9 (active).

With SMARCD2 (SWI/SNF related BAF chromatin remodeling complex subunit D2), rucaparib or vehicle Rucaparib, cell line OCI-C5x (clear cell), technical replicate 1, the entry reads viability, normalised (%) = 31.7 (active). For SMARCD2 (SWI/SNF related BAF chromatin remodeling complex subunit D2), rucaparib or vehicle Rucaparib, cell line OCI-C5x (clear cell), technical replicate 2, the values are viability, normalised (%) = 32.2 (active). With SMARCD2 (SWI/SNF related BAF chromatin remodeling complex subunit D2), rucaparib or vehicle Rucaparib, cell line OCI-C5x (clear cell), technical replicate 3, the values are viability, normalised (%) = 29 (active). SMARCD2 (SWI/SNF related BAF chromatin remodeling complex subunit D2), rucaparib or vehicle Rucaparib, cell line OCI-P5x (serous), technical replicate 1 gave viability, normalised (%) = 46.7 (active). With SMARCD2 (SWI/SNF related BAF chromatin remodeling complex subunit D2), rucaparib or vehicle Rucaparib, cell line OCI-P5x (serous), technical replicate 2 the deposit lists viability, normalised (%) = 59.5 (active). SMARCD2 (SWI/SNF related BAF chromatin remodeling complex subunit D2), rucaparib or vehicle Rucaparib, cell line OCI-P5x (serous), technical replicate 3 scored viability, normalised (%) = 46.7 (active).

With SMARCD2 (SWI/SNF related BAF chromatin remodeling complex subunit D2), rucaparib or vehicle Vehicle, cell line OCI-C5x (clear cell), technical replicate 1, the entry reads viability, normalised (%) = 28.9 (active). With SMARCD2 (SWI/SNF related BAF chromatin remodeling complex subunit D2), rucaparib or vehicle Vehicle, cell line OCI-C5x (clear cell), technical replicate 2 the deposit lists viability, normalised (%) = 34.8 (active). SMARCD2 (SWI/SNF related BAF chromatin remodeling complex subunit D2), rucaparib or vehicle Vehicle, cell line OCI-C5x (clear cell), technical replicate 3 scored viability, normalised (%) = 31.5 (active). With SMARCD2 (SWI/SNF related BAF chromatin remodeling complex subunit D2), rucaparib or vehicle Vehicle, cell line OCI-P5x (serous), technical replicate 1, the entry reads viability, normalised (%) = 50.6 (active). For SMARCD2 (SWI/SNF related BAF chromatin remodeling complex subunit D2), rucaparib or vehicle Vehicle, cell line OCI-P5x (serous), technical replicate 2 the deposit lists viability, normalised (%) = 55.6 (active). SMARCD2 (SWI/SNF related BAF chromatin remodeling complex subunit D2), rucaparib or vehicle Vehicle, cell line OCI-P5x (serous), technical replicate 3 showed viability, normalised (%) = 86.2.

For PINK1 (PTEN induced kinase 1), rucaparib or vehicle Rucaparib, cell line OCI-C5x (clear cell), technical replicate 1 the deposit lists viability, normalised (%) = 60.1 (active). PINK1 (PTEN induced kinase 1), rucaparib or vehicle Rucaparib, cell line OCI-C5x (clear cell), technical replicate 2 scored viability, normalised (%) = 54.8 (active). With PINK1 (PTEN induced kinase 1), rucaparib or vehicle Rucaparib, cell line OCI-C5x (clear cell), technical replicate 3, the entry reads viability, normalised (%) = 78.5 (active). With PINK1 (PTEN induced kinase 1), rucaparib or vehicle Rucaparib, cell line OCI-P5x (serous), technical replicate 1, the entry reads viability, normalised (%) = 109. PINK1 (PTEN induced kinase 1), rucaparib or vehicle Rucaparib, cell line OCI-P5x (serous), technical replicate 2 showed viability, normalised (%) = 98.7. With PINK1 (PTEN induced kinase 1), rucaparib or vehicle Rucaparib, cell line OCI-P5x (serous), technical replicate 3 the deposit lists viability, normalised (%) = 89.5.

PINK1 (PTEN induced kinase 1), rucaparib or vehicle Vehicle, cell line OCI-C5x (clear cell), technical replicate 1 scored viability, normalised (%) = 67.9 (active). With PINK1 (PTEN induced kinase 1), rucaparib or vehicle Vehicle, cell line OCI-C5x (clear cell), technical replicate 2 the deposit lists viability, normalised (%) = 65.5 (active). PINK1 (PTEN induced kinase 1), rucaparib or vehicle Vehicle, cell line OCI-C5x (clear cell), technical replicate 3 showed viability, normalised (%) = 63.9 (active). With PINK1 (PTEN induced kinase 1), rucaparib or vehicle Vehicle, cell line OCI-P5x (serous), technical replicate 1, the values are viability, normalised (%) = 89.8. With PINK1 (PTEN induced kinase 1), rucaparib or vehicle Vehicle, cell line OCI-P5x (serous), technical replicate 2, the values are viability, normalised (%) = 78 (active). For PINK1 (PTEN induced kinase 1), rucaparib or vehicle Vehicle, cell line OCI-P5x (serous), technical replicate 3, the entry reads viability, normalised (%) = 83.7.
